Data: the supplement of paper PMC3334620
The full ranking holds about 33,000 sequences; the median of “E-score (-0.5 to 0.5)” is about -0.0014, and the highest 2% start at about 0.25. The list shows a part of the results.

These sequences were tested against T1, Cad1 (UniProt P24813) (assay: PBM E-score (8-mer binding enrichment) (E-score (-0.5 to 0.5)); higher = stronger / more preferred TF binding). Conditions: protein concentration: 100 nM; construct: GST-full length.
T1 sequence: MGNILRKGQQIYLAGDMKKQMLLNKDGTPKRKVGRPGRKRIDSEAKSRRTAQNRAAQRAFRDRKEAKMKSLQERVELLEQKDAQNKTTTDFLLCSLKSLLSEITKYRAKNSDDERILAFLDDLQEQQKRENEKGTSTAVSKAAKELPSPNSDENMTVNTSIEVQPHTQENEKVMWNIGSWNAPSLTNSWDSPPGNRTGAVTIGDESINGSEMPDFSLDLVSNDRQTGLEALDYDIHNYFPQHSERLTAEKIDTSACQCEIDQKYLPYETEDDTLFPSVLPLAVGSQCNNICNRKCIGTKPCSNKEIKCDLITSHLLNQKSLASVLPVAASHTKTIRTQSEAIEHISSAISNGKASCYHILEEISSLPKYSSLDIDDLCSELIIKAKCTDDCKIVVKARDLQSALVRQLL
Experimental: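 Universal 'all 10-mer' protein binding microarrays (Agilent AMADID 015681) probed with GST-tagged S. cerevisiae TFs (full-length or DBD) made by in vitro transcription/translation (PURExpress), about 100-200 nM. Bound TF was detected with fluorescent anti-GST. Each ungapped 8-mer (which stands for itself and its reverse complement) is scored by the PBM enrichment score (E-score), a modified Wilcoxon-Mann-Whitney statistic from -0.5 to +0.5, computed with the Universal PBM Analysis Suite. Scale: above 0.35 generally sequence-specific binding.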

Sequence	PBM E-score
CCCGTCTC	-0.183
TCCGAGGA	0.105
CCGGTCCG	-0.104
ATGAGATA	0.218
GGACTTAC	-0.047
AGAGGCAT	-0.0737
AGACATAC	-0.0253
CCAGCAAC	-0.0725
CGGATTTA	0.12
AATTTAGG	0.195
ACGGCGAC	-0.0568
ATGCATCG	0.114
AAAGAGAC	0.0946
AGCGTCCG	-0.00766
AGTGTGAA	0.11
GAATGTTA	0.181
GACAACTA	0.0404
ATCGTAGC	0.0921
ACTCCGGC	-0.00802
GATGCTAA	0.102
AAGCATAA	0.0493
CGTGGTAC	-0.101
TCCATACA	-0.117
AAAAATGG	0.14
ACCGTGAC	-0.083

Nothing new here: an excerpt of the list.
Sequence	PBM E-score
ATGAGATA	0.218
GGACTTAC	-0.047
AGAGGCAT	-0.0737
AGACATAC	-0.0253
CCAGCAAC	-0.0725
CGGATTTA	0.12

Next entries follow:

Sequence	PBM E-score
ACTTGACC	-0.192
AGAAGACA	-0.101
CGGAGCCC	-0.331
CTATAGCA	-0.0148
AGGAGAGC	-0.257
AAGCGTTG	-0.0702
TATTTCCA	0.027
CCGGGCAG	-0.114
CAGCCGCG	0.0589
ATACAGTA	-0.00352
CCTCCTGA	-0.257
CTCCGGTC	-0.0739
GAATGGCC	0.0215
CAGTCGTC	-0.164
CATCGAGC	0.0476
AGTCCTAG	-0.284
CCTCCGTA	-0.126
GAGTATGC	0.0723
CATTCAAG	-0.103
CTACTTAA	-0.0817
CAGCGTAG	-0.067
CATGTCGG	-0.0678
AAGGACCG	-0.21
AGCGTCTC	-0.129
GGCTCACA	0.0204

Some of the entries so far, comma-delimited.
Sequence,PBM E-score
ACTTGACC,-0.192
AGAAGACA,-0.101
CGGAGCCC,-0.331
CTATAGCA,-0.0148

Following part.

Sequence	PBM E-score
GACACGTA	-0.0821
TACTAGGA	0.0557
CCAATCGG	-0.157
ACCGAGCC	-0.0302
AGGACACT	-0.195
CGTAAAGC	-0.0788
TAATATCA	0.167
AGAAAAGC	0.0297
GACGAGAA	0.116
GGCGCACA	0.00969
CCCGGTAG	-0.127
TTGGGAAA	0.116
CTCATCCA	0.175
ATCTTACA	0.202
CGAACTAC	-0.00144
ACTATAAC	0.0698
CTGAGAGC	-0.174
AGAGGTCC	0.0104
ACAGTAGC	-0.0431
GATTGCAA	0.117
AGATGCGC	0.0158
CGATTCGC	0.145
GCCGACGA	0.0989
ACGTAGAC	-0.247
CCAAGAAG	-0.0206

Sequence	PBM E-score
CCGCATAA	0.0761
CGGCACTA	0.055
CTGACATA	0.205
ACTATTCG	0.161
AAATCTTA	0.0837
CTTTCGTC	-0.0694
AAAGCGGA	0.0319
CATCCGAA	0.0882
CGGCCGTC	-0.0442
AGGCGGCG	-0.0441
CACTGCCC	-0.0471
CTTGGAGC	-0.0155
GCACCTCC	-0.224
CATGGAGC	-0.126
GCCGTATA	0.144
ACTATCCC	-0.261
CGGGTAAG	-0.139
CGTTAAAA	-0.171
AAGAGCGC	0.0569
ACCCCCGG	-0.355
GGAACACA	0.0187
GTGCCACA	-0.115
AAAGGTCA	-0.0383
ATGTTGCA	0.0394
TACAATAA	0.0949

Sequence	PBM E-score
GGGACGAC	-0.0177
TACCATAA	0.043
AGCGACGA	-0.0382
CCTAACCA	0.0715
AGAGACCG	-0.221
GCCCAATA	0.0133
ATTGTCAC	0.0726
CCCCGCTA	-0.00641
GGTCGTTA	0.157
GGGTAGCA	-0.169
TCACCAGA	-0.171
AGATTGCA	-0.00032
CGTAGATA	0.113
CCGGGCAA	-0.0535
ATATAATG	0.0839
ACTGTGGG	-0.092
CACCAGTC	-0.215
ATCGTAGG	-0.034
GCGACACA	0.0376
GTGTCGCA	-0.124
GGGAGACA	-0.158
AATGTGCC	0.0719
GCGTTACC	-0.123
CCGCGAGC	-0.111
CGAGTGAC	-0.14

Sequence	PBM E-score
CCCGCGTC	0.0369
GAGTAGCC	-0.0672
TCCTTTAA	-0.0326
CGCGGATC	0.0644
CGCACAGC	-0.03
AACGGTAT	-0.0147
CCTGCATA	-0.0704
CCCAGTAC	-0.195
AGGACTTA	-0.194
GCCCCTCC	-0.187
AATGGGTA	0.0585
GTGATCAC	0.0299
ATGGGGAA	0.0647
AATCGACC	-0.051
AGTTCCCC	-0.0555
AAGTAAGG	0.0078
AAAGCATC	0.0361
TACTCGAA	-0.176
GGTAAACA	0.124
AGCTGAAC	0.0037
AAATCTGG	0.116
AAGGGGGC	-0.368
AGTGAAGC	-0.0117
GCTTCGAA	0.0485
ATATGTGG	0.0229

Sequence	PBM E-score
CTGCGCGA	0.13
AGACAACT	0.163
AATTCGGC	-0.0493
GCCTTTAA	-0.0797
GAGAGAGA	-0.0445
CGTCATAC	0.199
ACTTTGCT	-0.0301
CGGGTTAC	-0.00029
GCTGCAGC	0.115
TAAGGTAA	0.0771
GCGGATTA	0.182
CGCTAGAG	-0.115
AACGGATC	0.217
CGATTAGC	0.102
ATCATTCA	0.173
GAGGTGTA	-0.242
CAAGGGTG	0.0306
ACCCCTTA	-0.118
GGAACGAA	-0.0806
GTGTAAGA	-0.0847
CTAGAGAG	-0.295
CTACCGTC	-0.0743
